Where “and” joins values, the source holds several entries; their conditions need not be identical. Equal entries are not always repeated. The campaign covered roughly 390,000 compounds. About 4,000 (1%) were called active. Inconclusive means that the source gave no clear call. Such entries were picked first, then a sample of the others. Calls follow the shape of the dose curve; as a rule, active = well fitted inhibition curve with a large enough effect; inconclusive = small, poorly fitted or top-dose-only effect, or another doubt; inactive = no such curve, though single readings can be large or run the other way. Potencies of inconclusive entries are doubtful fits and often do not repeat.
Each molecule was assayed against DNA polymerase iota (Homo sapiens) (UniProt Q9UNA4) (assay: qHTS for Inhibitors of Polymerase Iota). Conditions: Pol iota fluorescent replication assay, 10 min; series mostly up to 115 µM; activity, negative = inhibition: at the top concentration.
Procedure, shortened: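 Pol iota at 10 nM preincubated 15 min with compounds at room temperature; reaction started with fluorescent substrate, 50 nM final. Fluorescence read kinetically at 0 and 10 min; buffer-only wells as negative control.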
Potency is read from the fitted curve at half-maximal effect.

Protein sequences, listed by entry. Tags and fused reporters are not part of them. Lines headed by an entry give the natural chain unless they say otherwise; changes in a name come on top.
UniProt Q9UNA4: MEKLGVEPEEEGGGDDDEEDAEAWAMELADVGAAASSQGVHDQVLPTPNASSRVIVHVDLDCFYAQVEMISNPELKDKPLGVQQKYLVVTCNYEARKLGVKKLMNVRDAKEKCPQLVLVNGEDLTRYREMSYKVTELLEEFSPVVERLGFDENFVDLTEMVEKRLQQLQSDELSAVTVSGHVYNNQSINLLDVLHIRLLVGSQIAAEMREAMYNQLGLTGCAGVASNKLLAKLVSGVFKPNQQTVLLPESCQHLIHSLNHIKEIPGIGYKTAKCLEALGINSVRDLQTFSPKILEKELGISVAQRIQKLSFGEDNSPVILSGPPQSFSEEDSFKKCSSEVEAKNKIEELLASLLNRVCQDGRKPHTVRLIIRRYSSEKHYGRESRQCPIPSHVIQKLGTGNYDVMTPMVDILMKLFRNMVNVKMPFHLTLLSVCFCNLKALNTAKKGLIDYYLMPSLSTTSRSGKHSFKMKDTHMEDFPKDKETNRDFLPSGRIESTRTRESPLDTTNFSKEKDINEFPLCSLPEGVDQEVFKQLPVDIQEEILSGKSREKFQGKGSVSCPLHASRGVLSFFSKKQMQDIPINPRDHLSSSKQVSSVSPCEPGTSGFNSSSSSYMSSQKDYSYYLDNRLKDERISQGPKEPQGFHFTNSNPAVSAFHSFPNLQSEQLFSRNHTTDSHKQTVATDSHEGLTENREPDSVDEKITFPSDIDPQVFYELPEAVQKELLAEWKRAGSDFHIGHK

| Compound | Potency | activity, negative = inhibition |
| --- | --- | --- |
| Cn1sccc1=O | inconclusive: 20 µM [inhibitor, partial curve, poor fit] | – |
| CCc1ccccc1NC(=O)c1ccc2nc(CCc3ccccc3)oc2c1 | inconclusive: 39.8 µM [inhibitor, partial curve, poor fit] | – |
| S=C1SCN(Cc2ccccn2)CN1Cc1ccco1 | inconclusive: 12.6 µM [inhibitor, partial curve] | – |
| COc1ccccc1N1CCN(CCC(=O)Nc2cccc(Cl)c2)CC1 | inconclusive: 39.8 µM [inhibitor, full curve, poor fit] | – |
| CN(C)c1ccc(C=c2c3cc([N+](=O)[O-])ccc3n3c2cc(-c2ccccc2)[n+]3C)cc1 | inconclusive: 22.4 µM [inhibitor, partial curve, poor fit] | – |
| CC(C)C[C@@H](CNCC(=O)[C@H](CC(C)C)NC(=O)c1[nH]cnc1C(=O)N[C@@H](C)CN)NC(=O)c1nc[nH]c1C(=O)N[C@@H](CC(=O)O)C(=O)O | inconclusive: 14.1 µM [inhibitor, full curve, poor fit] | – |
| O=C(CSc1nnc(COc2ccccc2)o1)NCCc1ccccc1 | inconclusive: 10 µM [inhibitor, single point] | – |
| C[C@H](C(=O)NCc1ccccc1)C(=O)c1ccccc1 | – | inactive: -4.11% |
| CNC(=O)OCc1nc(SSC(C)(C)C)n(C)c1COC(=O)NC | inconclusive: 28.2 µM [inhibitor, single point] | – |
| CC(C)(C)c1ccc2c(c1)OC(C(=O)N/N=C\c1ccncc1)CO2 (centres undefined) | inconclusive: 56.2 µM [inhibitor, partial curve, poor fit] | – |
| O=C(O)C1CCN(C(=O)c2ccccc2Cl)CC1 | – | inactive: 16.7% |
| C[n+]1ccc(/C=C/c2ccccc2O)c2ccccc21 | – | inactive: -10.4% |
| CC(Sc1nnc(N)s1)C(=O)Nc1ccc2c(c1)OCO2 (centres undefined) | inconclusive: 8.91 µM [inhibitor, partial curve, poor fit] | – |
| COc1cccc(NC(=O)Cn2cc(S(=O)(=O)N3CCCC3)c(S(=O)(=O)N3CCCC3)c2)c1 | inconclusive: 89.1 µM [inhibitor, single point] | – |
| Cc1ccccc1CNC(=O)Cn1ncn2nc(-c3cccs3)cc2c1=O | inconclusive: 50.1 µM [inhibitor, partial curve] | – |
| CCOc1ccccc1CNC(=O)c1cc2cc(S(=O)(=O)N3CCCCC3)ccc2n1C | – | inactive: 20.3% |
| COc1cc(/C=C2/C(=O)ON=C2C)cc(Cl)c1O | inconclusive: 28.2 µM [inhibitor, partial curve, poor fit] | – |
| CCC(C)(CN(C)C)OC(=O)c1ccccc1 (centres undefined) | inconclusive: 35.5 µM [inhibitor, partial curve, poor fit] | – |
| O=C(Nc1cc(C(F)(F)F)ccc1Cl)C(NCc1ccccc1)c1ccccc1 (centres undefined) | inconclusive: 79.4 µM [inhibitor, partial curve, poor fit] | – |
| Cc1cc(NS(=O)(=O)c2ccc(NC(=S)NC(=O)/C=C/c3ccccc3)cc2)no1 | inconclusive: 12.6 µM [inhibitor, full curve, poor fit] | – |

| Compound | Potency | activity, negative = inhibition |
| --- | --- | --- |
| CC(O)c1cccc(N=Cc2ccc3ccccc3c2O)c1 (centres undefined) | inconclusive: 35.5 µM [inhibitor, single point] | – |
| N#C/C(=C/C1=C(N2CCOCC2)C(=C/c2ccccc2)/CC1)C(=O)Nc1ccccc1F | inconclusive: 14.1 µM [inhibitor, partial curve] | – |
| O=C(/C=C/c1ccc(Br)cc1)c1ccco1 | inconclusive: 22.4 µM [inhibitor, partial curve, poor fit] | – |
| N#C/C(=C(/O)CN1CCOCC1)c1nc(-c2ccccc2)cs1 | inconclusive: 79.4 µM [inhibitor, partial curve, poor fit] | – |
| Cc1cc2c(c(CO)c1CCO)C(=O)[C@@H](C)[C@@H]2O | inconclusive: 25.1 µM [inhibitor, partial curve, poor fit] | – |
| O=C(Cc1cccs1)N1CCN(c2ccc([N+](=O)[O-])cc2)CC1 | inconclusive: 56.2 µM [inhibitor, single point] | – |
| O=C(c1ccccc1Cl)N1CCC(c2nc3c(nnn3Cc3ccco3)c(=O)[nH]2)CC1 | inconclusive: 31.6 µM [inhibitor, partial curve, poor fit] | – |
| CCc1ccc(NC(=O)C2CCN(C(=O)N3CC(CC)Oc4ccccc43)CC2)cc1 (centres undefined) | – | inactive: 3.17% |
| Cc1cc(C(=O)N2CCN(C(c3ccccc3)c3ccccc3)CC2)no1 | – | inactive: -14.2% [at 58.9 µM] |
| N#Cc1ccccc1S(=O)(=O)N1CCN(c2nc(-c3cccs3)nc3ccccc23)CC1 | inactive and inconclusive: 79.4 µM [inhibitor, single point] | – |
| Cc1c(N2C(=O)/C(=C/c3ccc(N(C)C)cc3)N(C)C2=S)c(=O)n(-c2ccccc2)n1C | inconclusive: 56.2 µM [inhibitor, partial curve, poor fit] | – |
| CCc1c(C)sc(NC(=O)OC)c1C(=O)N1CCCCC1 | inconclusive: 39.8 µM [inhibitor, partial curve, poor fit] | – |
| O=C(c1cc(S(=O)(=O)N2CCOCC2)ccc1F)N(CCc1ccccc1)Cc1ccccc1 | inconclusive: 50.1 µM [inhibitor, partial curve] | – |
| CO/N=C(\C(=O)N[C@@H]1C(=O)N2C(C(=O)O)=C(COC(C)=O)CS[C@H]12)c1csc(N)n1 (stereo in doubt) | active: 20 µM and active: 17.8 µM and active: 11.2 µM | – |
| CCc1nn(CC(=O)N2CCCCC2)c(=O)c2cc3sccc3n12 | – | inactive: 79.1% |
| COc1ccccc1C(=O)OCc1c(-c2ccccc2)ncc2ccccc12 | inconclusive: 1 µM [inhibitor, full curve, poor fit] | – |
| CC(C)CN1CCc2nc(N3CCN(c4ncccn4)CC3)ncc2C1 | – | inactive: 9.94% |
| COc1ccc(-c2oc3ncnc(NCCCN(C)C)c3c2-c2ccc(OC)cc2)cc1 | – | inactive: -0.381% |
| O=C(Cc1ccccc1)NNC(=O)c1ccc(NC(=O)c2ccccc2)cc1 | inconclusive: 70.8 µM [inhibitor, partial curve] | – |

Random excerpt: two compounds from above

| Compound | Potency | activity, negative = inhibition |
| --- | --- | --- |
| N#C/C(=C(/O)CN1CCOCC1)c1nc(-c2ccccc2)cs1 | inconclusive: 79.4 µM [inhibitor, partial curve, poor fit] | – |
| CC(C)CN1CCc2nc(N3CCN(c4ncccn4)CC3)ncc2C1 | – | inactive: 9.94% |

From PubChem BioAssay AID588590 (National Center for Advancing Translational Sciences (NCATS), 2011)
